No constants are given. Whether binding was seen depends on the method and setting. In cells and extracts the contact can be indirect. These calls come from enrichment with a bait or labelling near it, and not all partners need be listed. For some assays here: No binding means not detected with the bait.
B1: KATNAL2 (protein, UniProt Q9D3R6 1-539)
chain: MELSYQTLKLTHQAREAYEMRTEARRKNLLILILHYLTQEGYMDAAKALEEETKLGLRRFEVCDNVDLETILMEYESYYFVKFQKYPKVVKKAPDPVENNLPSRSGGKNKRLTNDSCQNLPKICHQKSRPKTSAVKTGDTKSVKEHLKQVKESVTDTQAESTDFGLNISKIHKDQPEEKAQPRRGQIIDFRGLLSDAIKGATSEFALNTFECNPDPSERLLKPLSAFIGMNSEMRELAAVVSRDIYLHNPNIKWNDIIGLDAAKQLVKEAVVYPIRYPQLFTGILSPWKGLLLYGPPGTGKTLLAKAVATECKTTFFNISASTIVSKWRGDSEKLVRVLFELARYHAPSTIFLDELESVMSQRGMVPGGEHEGSLRMKTELLVQMDGLARSEDLVFVLAASNLPWELDCAMLRRLEKRILVDLPSQEARQAMIYHWLPPVSKNHALELHTQLEYSVLSQETEGYSGSDIKLVCREAAMRPVRKIFSVLENNQSESNNLPGIQLDTVTTQDFLDVLAHTKPSAKNLTERYLAWQEKFESV

Amino acid sequences for entries named in this document (tags omitted).
UniProt Q8K0T4: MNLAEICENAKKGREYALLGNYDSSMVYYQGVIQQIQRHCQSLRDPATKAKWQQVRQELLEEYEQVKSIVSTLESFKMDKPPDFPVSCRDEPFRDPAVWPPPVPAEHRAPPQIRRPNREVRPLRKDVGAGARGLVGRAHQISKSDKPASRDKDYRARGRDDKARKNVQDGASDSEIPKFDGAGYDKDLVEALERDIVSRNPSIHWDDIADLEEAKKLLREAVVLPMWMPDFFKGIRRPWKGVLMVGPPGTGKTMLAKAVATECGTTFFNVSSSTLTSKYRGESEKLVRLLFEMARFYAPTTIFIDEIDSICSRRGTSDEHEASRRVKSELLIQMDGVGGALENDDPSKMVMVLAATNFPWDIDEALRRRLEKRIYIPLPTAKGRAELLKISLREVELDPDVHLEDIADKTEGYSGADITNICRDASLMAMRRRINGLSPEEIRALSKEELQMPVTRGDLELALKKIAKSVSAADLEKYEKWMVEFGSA
UniProt Q9WV86: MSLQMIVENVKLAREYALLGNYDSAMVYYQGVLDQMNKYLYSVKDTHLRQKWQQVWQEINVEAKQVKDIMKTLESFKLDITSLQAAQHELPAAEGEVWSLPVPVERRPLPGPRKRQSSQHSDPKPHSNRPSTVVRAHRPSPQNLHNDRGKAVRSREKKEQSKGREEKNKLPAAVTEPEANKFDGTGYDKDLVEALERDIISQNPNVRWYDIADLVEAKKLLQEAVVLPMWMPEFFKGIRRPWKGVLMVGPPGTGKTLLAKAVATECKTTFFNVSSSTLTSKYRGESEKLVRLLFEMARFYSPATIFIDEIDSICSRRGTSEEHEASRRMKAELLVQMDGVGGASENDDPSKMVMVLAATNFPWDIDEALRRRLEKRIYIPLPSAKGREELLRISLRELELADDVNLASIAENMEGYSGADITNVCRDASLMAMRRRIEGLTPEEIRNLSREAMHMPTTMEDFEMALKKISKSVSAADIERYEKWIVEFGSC
UniProt Q8BG40: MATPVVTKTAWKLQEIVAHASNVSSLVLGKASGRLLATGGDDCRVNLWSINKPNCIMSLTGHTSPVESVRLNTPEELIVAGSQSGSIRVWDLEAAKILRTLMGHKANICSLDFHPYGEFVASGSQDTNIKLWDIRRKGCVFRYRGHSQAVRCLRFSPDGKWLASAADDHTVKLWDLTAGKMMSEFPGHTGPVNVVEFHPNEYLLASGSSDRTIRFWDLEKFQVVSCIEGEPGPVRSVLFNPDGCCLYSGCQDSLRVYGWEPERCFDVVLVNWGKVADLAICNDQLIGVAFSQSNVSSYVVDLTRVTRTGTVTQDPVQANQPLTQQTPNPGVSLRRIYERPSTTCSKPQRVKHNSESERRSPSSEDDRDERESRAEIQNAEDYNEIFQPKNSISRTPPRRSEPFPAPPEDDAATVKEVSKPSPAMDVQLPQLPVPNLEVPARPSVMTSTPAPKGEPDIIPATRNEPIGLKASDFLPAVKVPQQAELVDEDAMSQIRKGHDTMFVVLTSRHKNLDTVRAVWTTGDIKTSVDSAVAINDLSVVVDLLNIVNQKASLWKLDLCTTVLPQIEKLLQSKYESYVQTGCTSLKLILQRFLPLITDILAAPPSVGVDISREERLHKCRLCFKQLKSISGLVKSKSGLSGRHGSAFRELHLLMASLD

Experiments:
Test in all cases: affinity purification with mass spectrometry; in-house anti-KATNA1 (10 ug), anti-KATNAL1 (5 ug) or anti-KATNB1 (5 ug) antibody covalently coupled to AminoLink Plus resin (Pierce Co-IP kit); 5 mg pre-cleared WT mouse testis lysate (1% NP-40 in PBS, protease inhibitors), overnight at 4°C; negative control: antibody with non-amine-reactive control agarose resin; n=3 testes per IP; eluate digested with trypsin, LC-MS/MS, enrichment against control P<0.05
[1] = molecular target: KATNAL1 (mouse (endogenous in testis)) (UniProt Q8K0T4)
[2] = molecular target: KATNA1 (mouse (endogenous in testis)) (UniProt Q9WV86)
[3] = molecular target: KATNB1 (mouse (endogenous in testis)) (UniProt Q8BG40)

Row | Molecule | binding [1] | binding [2] | binding [3]
1 | KATNB1 (from UniProt Q8BG40 1-658) | binds | – | –
2 | KATNAL1 (from UniProt Q8K0T4 1-488) | – | no binding | binds
3 | B1 | no binding | no binding | –
